Assay results as given in patent US7414023B2, “Peptide ligands for prostate specific antigen” (Licentia Ltd., priority 2000, dated 2008).
Part of at least one peptide drawing is inferred or uncertain, most often the ends. Bridge positions count the residues as written; N and C are the ends. Peptide text beside a SMILES is read from it.

The chains behind the UniProt entries cited, without tags or fusion partners. Where a name states a change or a piece, a line headed by the entry shows the natural chain unless it says otherwise. Residues count along the entry.
UniProt P07288, 25-261: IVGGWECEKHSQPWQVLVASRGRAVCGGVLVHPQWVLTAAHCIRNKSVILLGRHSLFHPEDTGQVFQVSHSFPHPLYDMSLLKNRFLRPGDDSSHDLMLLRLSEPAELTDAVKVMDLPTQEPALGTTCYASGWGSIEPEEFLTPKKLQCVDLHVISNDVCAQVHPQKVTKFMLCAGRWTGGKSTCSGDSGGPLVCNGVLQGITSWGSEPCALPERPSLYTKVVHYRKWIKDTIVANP

Molecular target: PSA-A2M complex (Homo sapiens, UniProt P07288)
Experiment: Enzyme activity of PSA in complex with A2M, substrate S-2586
Format: biochemical
Details: 1 μg PSA in complex with A2M, 50-fold molar excess of synthetic peptide (GACVAYCIEHHCWTCGA), MAb 4G10 present

`CC[C@H](C)[C@@H]1NC(=O)[C@@H]2CSSC[C@H](NC(=O)[C@H](Cc3c[nH]cn3)NC(=O)[C@H](Cc3c[nH]cn3)NC(=O)[C@H](CCC(=O)O)NC1=O)C(=O)N[C@@H](Cc1c[nH]c3ccccc13)C(=O)N[C@@H]([C@@H](C)O)C(=O)N[C@H](C(=O)O)CSSC[C@H](N)C(=O)N[C@@H](C(C)C)C(=O)N[C@@H](C)C(=O)N[C@@H](Cc1ccc(O)cc1)C(=O)N2` [Peptide C-4] (H-CVAYCIEHHCWTC-OH; disulfide 1-13, 5-10; N-terminus and C-terminus assumed) was tested, and the “enhancement of the enzyme activity of A2M-complexed PSA” value was “about 2 fold”.
